# The other results are listed elsewhere or left out.
# Experiments:
# Experiment in all cases: glycan array binding signal (z-score within array); higher = stronger binding
# Conditions in all cases: glycan notation: IUPAC condensed, linker removed
# [1] = molecular target: GalNAc(b1-4)GlcNAc(b1-2)Man(a1-3)[GalNAc(b1-4)GlcNAc(b1-2)Man(a1-6)]Man(b1-4)GlcNAc(b1-4)GlcNAc
# Method in brief: (§1)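 Columns mapping to the same glycan were averaged after glycan names were converted to IUPAC-condensed notation. The data come from 3228 arrays in the Consortium for Functional Glycomics database, limited to those with an available protein sequence. Binding is reported as a within-array Z-score averaged across arrays of one protein sequence and across linkers.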
# [2] = molecular target: GalNAc(b1-4)GlcNAc(b1-3)GalNAc(b1-4)GlcNAc
# Method in brief: as §1
# GalNAc(b1-4)GlcNAc6S = molecular target: GalNAc(b1-4)GlcNAc6S
# Method in brief: as §1
# GalNAc(b1-6)GalNAc = molecular target: GalNAc(b1-6)GalNAc
# Method in brief: as §1
# GalNAc3S(b1-4)GlcNAc = molecular target: GalNAc3S(b1-4)GlcNAc
# Method in brief: as §1
# GalNAc3S(b1-4)GlcNAc3S = molecular target: GalNAc3S(b1-4)GlcNAc3S
# Method in brief: as §1
# [3] = molecular target: GalNAc3S(b1-4)[Fuc(a1-3)]GlcNAc
# Method in brief: as §1
# GalNAc4S6S(b1-4)GlcNAc = molecular target: GalNAc4S6S(b1-4)GlcNAc
# Method in brief: as §1
# GalNAc6S(b1-4)GlcNAc = molecular target: GalNAc6S(b1-4)GlcNAc
# Method in brief: as §1
# Glc(a1-4)Glc = molecular target: Glc(a1-4)Glc
# Method in brief: as §1
# [4] = molecular target: Glc(a1-4)Glc(a1-4)Glc(a1-4)Glc
# Method in brief: as §1
# Glc(a1-6)Glc(a1-6)Glc = molecular target: Glc(a1-6)Glc(a1-6)Glc
# Method in brief: as §1
# [5] = molecular target: Glc(a1-6)Glc(a1-6)Glc(a1-6)Glc
# Method in brief: as §1
# Glc(b1-4)Glc = molecular target: Glc(b1-4)Glc
# Method in brief: as §1
# Glc(b1-6)Glc = molecular target: Glc(b1-6)Glc
# Method in brief: as §1
# GlcA(b1-3)Gal = molecular target: GlcA(b1-3)Gal
# Method in brief: as §1
# GlcA(b1-3)GlcNAc = molecular target: GlcA(b1-3)GlcNAc
# Method in brief: as §1
# GlcA(b1-6)Gal = molecular target: GlcA(b1-6)Gal
# Method in brief: as §1
# [6] = molecular target: GlcA3S(b1-3)Gal(b1-4)GlcNAc(b1-2)Man
# Method in brief: as §1
# [7] = molecular target: GlcA3S(b1-3)Gal(b1-4)GlcNAc(b1-3)Gal(b1-4)Glc
# Method in brief: as §1
# [8] = molecular target: GlcNAc(a1-3)Gal(b1-4)GlcNAc
# Method in brief: as §1
# [9] = molecular target: GlcNAc(a1-4)Gal(b1-3)GlcNAc
# Method in brief: as §1
# [10] = molecular target: GlcNAc(a1-4)Gal(b1-4)GalNAc
# Method in brief: as §1
# [11] = molecular target: GlcNAc(a1-4)Gal(b1-4)GlcNAc
# Method in brief: as §1
# [12] = molecular target: GlcNAc(a1-4)Gal(b1-4)GlcNAc(b1-3)Gal(b1-4)Glc
# Method in brief: as §1
# [13] = molecular target: GlcNAc(a1-4)Gal(b1-4)GlcNAc(b1-3)Gal(b1-4)GlcNAc
# Method in brief: as §1
# [14] = molecular target: GlcNAc(a1-4)Gal(b1-4)GlcNAc(b1-3)Gal(b1-4)GlcNAc(b1-3)Gal(b1-4)GlcNAc
# Method in brief: as §1
# [15] = molecular target: GlcNAc(a1-4)Gal(b1-4)GlcNAc(b1-3)Gal(b1-4)[Fuc(a1-3)]GlcNAc(b1-3)Gal(b1-4)[Fuc(a1-3)]GlcNAc
# Method in brief: as §1
# [16] = molecular target: GlcNAc(a1-6)Gal(b1-4)GlcNAc
# Method in brief: as §1
# [17] = molecular target: GlcNAc(b1-2)Gal(b1-3)GalNAc
# Method in brief: as §1
# [18] = molecular target: GlcNAc(b1-2)Man(a1-3)[GlcNAc(b1-2)Man(a1-6)]Man(b1-4)GlcNAc(b1-4)GlcNAc
# Method in brief: as §1
# [19] = molecular target: GlcNAc(b1-2)Man(a1-3)[GlcNAc(b1-2)Man(a1-6)]Man(b1-4)GlcNAc(b1-4)[Fuc(a1-6)]GlcNAc
# Method in brief: as §1
# [20] = molecular target: GlcNAc(b1-2)Man(a1-3)[GlcNAc(b1-4)][GlcNAc(b1-2)Man(a1-6)]Man(b1-4)GlcNAc(b1-4)GlcNAc
# Method in brief: as §1
# [21] = molecular target: GlcNAc(b1-2)Man(a1-3)[GlcNAc(b1-4)][GlcNAc(b1-2)Man(a1-6)]Man(b1-4)GlcNAc(b1-4)[Fuc(a1-6)]GlcNAc
# Method in brief: as §1
# [22] = molecular target: GlcNAc(b1-2)[GlcNAc(b1-4)]Man(a1-3)[GlcNAc(b1-2)Man(a1-6)]Man(b1-4)GlcNAc(b1-4)GlcNAc
# Method in brief: as §1
# [23] = molecular target: GlcNAc(b1-2)[GlcNAc(b1-4)]Man(a1-3)[GlcNAc(b1-4)][GlcNAc(b1-2)Man(a1-6)]Man(b1-4)GlcNAc(b1-4)GlcNAc
# Method in brief: as §1
# [24] = molecular target: GlcNAc(b1-2)[GlcNAc(b1-4)]Man(a1-3)[GlcNAc(b1-4)][GlcNAc(b1-2)[GlcNAc(b1-6)]Man(a1-6)]Man(b1-4)GlcNAc(b1-4)GlcNAc
# Method in brief: as §1
# [25] = molecular target: GlcNAc(b1-2)[GlcNAc(b1-4)]Man(a1-3)[GlcNAc(b1-4)][GlcNAc(b1-2)[GlcNAc(b1-6)]Man(a1-6)]Man(b1-4)GlcNAc(b1-4)[Fuc(a1-6)]GlcNAc
# Method in brief: as §1
# [26] = molecular target: GlcNAc(b1-2)[GlcNAc(b1-6)]Man(a1-6)[GlcNAc(b1-2)Man(a1-3)]Man(b1-4)GlcNAc(b1-4)GlcNAc
# Method in brief: as §1
# [27] = molecular target: GlcNAc(b1-2)[GlcNAc(b1-6)]Man(a1-6)[GlcNAc(b1-2)Man(a1-3)]Man(b1-4)GlcNAc(b1-4)[Fuc(a1-6)]GlcNAc
# Method in brief: as §1
# [28] = molecular target: GlcNAc(b1-2)[GlcNAc(b1-6)]Man(a1-6)[GlcNAc(b1-4)][GlcNAc(b1-2)Man(a1-3)]Man(b1-4)GlcNAc(b1-4)GlcNAc
# Method in brief: as §1
# GlcNAc(b1-3)Fuc = molecular target: GlcNAc(b1-3)Fuc
# Method in brief: as §1
# GlcNAc(b1-3)Gal = molecular target: GlcNAc(b1-3)Gal
# Method in brief: as §1
# [29] = molecular target: GlcNAc(b1-3)Gal(b1-3)GalNAc
# Method in brief: as §1
# GlcNAc(b1-3)Gal(b1-4)Glc = molecular target: GlcNAc(b1-3)Gal(b1-4)Glc
# Method in brief: as §1
binder,measurement,setting,value
Pbx1CASH domain (Cryptococcus neoformans) (protein) MDETKPLWGNPRADGISLACKDSIVERNVVYDATDGAIVLFGSAGSTVKNNHVYARTRVILGGINLVDYEPWDGDYTNVKVHHNHLYALGRYFKVGIVIGPASWSDDTESVVHSASVTDNEFSGGYWGYGIVVASAKNFEVLRNKVIWDGEQGVARFSGVPGS,glycan array binding signal (z-score),[1],-0.309
same,glycan array binding signal (z-score),[2],0.515
same,glycan array binding signal (z-score),GalNAc(b1-4)GlcNAc6S,-0.586
same,glycan array binding signal (z-score),GalNAc(b1-6)GalNAc,-0.495
same,glycan array binding signal (z-score),GalNAc3S(b1-4)GlcNAc,-0.852
same,glycan array binding signal (z-score),GalNAc3S(b1-4)GlcNAc3S,0.07
same,glycan array binding signal (z-score),[3],-0.755
same,glycan array binding signal (z-score),GalNAc4S6S(b1-4)GlcNAc,-0.562
same,glycan array binding signal (z-score),GalNAc6S(b1-4)GlcNAc,0.021
same,glycan array binding signal (z-score),Glc(a1-4)Glc,-0.667
same,glycan array binding signal (z-score),[4],-0.661
same,glycan array binding signal (z-score),Glc(a1-6)Glc(a1-6)Glc,-0.614
same,glycan array binding signal (z-score),[5],0.583
same,glycan array binding signal (z-score),Glc(b1-4)Glc,0.13
same,glycan array binding signal (z-score),Glc(b1-6)Glc,-0.309
same,glycan array binding signal (z-score),GlcA(b1-3)Gal,-0.429
same,glycan array binding signal (z-score),GlcA(b1-3)GlcNAc,-0.194
same,glycan array binding signal (z-score),GlcA(b1-6)Gal,-0.6
same,glycan array binding signal (z-score),[6],-0.689
same,glycan array binding signal (z-score),[7],1.35
same,glycan array binding signal (z-score),[8],-0.585
same,glycan array binding signal (z-score),[9],-0.187
same,glycan array binding signal (z-score),[10],0.311
same,glycan array binding signal (z-score),[11],-0.512
same,glycan array binding signal (z-score),[12],0.223
same,glycan array binding signal (z-score),[13],0.597
same,glycan array binding signal (z-score),[14],0.136
same,glycan array binding signal (z-score),[15],1.21
same,glycan array binding signal (z-score),[16],-0.894
same,glycan array binding signal (z-score),[17],-0.202
same,glycan array binding signal (z-score),[18],0.233
same,glycan array binding signal (z-score),[19],1.83
same,glycan array binding signal (z-score),[20],0.705
same,glycan array binding signal (z-score),[21],-0.273
same,glycan array binding signal (z-score),[22],-0.257
same,glycan array binding signal (z-score),[23],-0.27
same,glycan array binding signal (z-score),[24],0.795
same,glycan array binding signal (z-score),[25],-0.891
same,glycan array binding signal (z-score),[26],-0.525
same,glycan array binding signal (z-score),[27],0.051
same,glycan array binding signal (z-score),[28],-0.525
same,glycan array binding signal (z-score),GlcNAc(b1-3)Fuc,-0.922
same,glycan array binding signal (z-score),GlcNAc(b1-3)Gal,-0.862
same,glycan array binding signal (z-score),[29],-0.938
same,glycan array binding signal (z-score),GlcNAc(b1-3)Gal(b1-4)Glc,-0.526

# Quoted at random: 3 records from the list, in no set order.
binder,measurement,setting,value
Pbx1CASH domain (Cryptococcus neoformans) (protein) MDETKPLWGNPRADGISLACKDSIVERNVVYDATDGAIVLFGSAGSTVKNNHVYARTRVILGGINLVDYEPWDGDYTNVKVHHNHLYALGRYFKVGIVIGPASWSDDTESVVHSASVTDNEFSGGYWGYGIVVASAKNFEVLRNKVIWDGEQGVARFSGVPGS,glycan array binding signal (z-score),[24],0.795
same,glycan array binding signal (z-score),Glc(b1-4)Glc,0.13
same,glycan array binding signal (z-score),Glc(a1-6)Glc(a1-6)Glc,-0.614

# Source: the supplement of paper PMC8728848
